Results deposited as PubChem BioAssay AID1259274 (Sanger Institute, 2017)

- Assay: 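siRNA screen of kinases for partners that act in synergy with targeted drugs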 (primary screen)
- Cells: human RKO colorectal cancer cells
- Reagents: siRNA pool against human genes
- Conditions: anchor drugs BYL719 at 1 µM, cetuximab at 5 µg/ml or trametinib at 10 nM; DMSO vehicle as the no-drug arm
- Detection: 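Viability as fraction of non-targeting pool 2 control, averaged across replicates, robust z-score for single knock-down, and a combination synergy score per anchor drug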
- Reading the numbers: viability z-score, siRNA alone: higher = more viable cells; low values mean essential gene
- Call rule: 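Essential when the robust viability z-score with siRNA only falls below -3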
- Meaning of the calls: active = essential when knocked down alone; inactive = no change alone
In all, the deposit lists 794 reagents; shown is a random part of them. 11 of all reagents (1.4%) were called active. 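Calls rest on knock-down without drug only; synergy scores with anchor drugs were not used for the essential call.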 Entries without a mark were called inactive. Not all columns of the deposit are shown. No sequences are given here. Not stated in the record: the amount of reagent, the time to read-out.

| gene symbol | viability z-score, siRNA alone |
| --- | --- |
| ATP23 (GeneID 91419) | 0.0731 |
| NRBP1 (GeneID 29959) | -0.738 |
| TLK1 (GeneID 9874) | 0.554 |
| GOLGA5 (GeneID 9950) | 0.269 |
| WNK4 (GeneID 65266) | -0.445 |
| PFKFB2 (GeneID 5208) | -0.29 |
| PINK1 (GeneID 65018) | -0.402 |
| TRIB3 (GeneID 57761) | 1.14 |
| TP53RK (GeneID 112858) | -0.205 |
| CDK1 (GeneID 983) | -0.706 |
| LMTK2 (GeneID 22853) | -0.875 |
| EPHA5 (GeneID 2044) | 0.942 |
| CREBBP (GeneID 1387) | -3.24 (active) |
| NEK10 (GeneID 152110) | 0.376 |
| TAF1 (GeneID 6872) | -0.318 |
| MAST1 (GeneID 22983) | 1.19 |
| PIK3C2B (GeneID 5287) | 0.404 |
| IKBKE (GeneID 9641) | -1.21 |
| ETNK2 (GeneID 55224) | -0.287 |
| STK25 (GeneID 10494) | -2.37 |
| MAPK1 (GeneID 5594) | 0.248 |
| SRPK2 (GeneID 6733) | -1.12 |
| CRKL (GeneID 1399) | 1.19 |
| HIPK1 (GeneID 204851) | -0.148 |
| CTNNB1 (GeneID 1499) | 0.766 |
| KSR1 (GeneID 8844) | -2.35 |
| EIF2AK4 (GeneID 440275) | -0.359 |
| GK (GeneID 2710) | 0.0388 |
| PAK1 (GeneID 5058) | -1.88 |
| PACSIN1 (GeneID 29993) | -0.168 |
| PRKAB1 (GeneID 5564) | -0.951 |
| SHPK (GeneID 23729) | -1.2 |
| PAPSS2 (GeneID 9060) | -0.423 |
| WIPF1 (GeneID 7456) | -1.17 |

Sorted by “viability z-score, siRNA alone” (low to high): some entries from above
| gene symbol | viability z-score, siRNA alone |
| --- | --- |
| LMTK2 (GeneID 22853) | -0.875 |
| CDK1 (GeneID 983) | -0.706 |
| PINK1 (GeneID 65018) | -0.402 |
| TP53RK (GeneID 112858) | -0.205 |
| TRIB3 (GeneID 57761) | 1.14 |
